Data: the supplement of paper PMC9233669
Variants at the background level are over-represented here.

What was measured:
biotinyl-Ile-oxazolone = experiment: self-aminoacylation, catalytic enhancement (BIO) (fold over background); higher = more active; k-Seq, kA / k0A0; sequences stand for … in GGGAAUGGAUCCACAUCUACGAAUUC…UUCACUGCAGACUUGACGAAGCUG
Outline: (§1)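 Working in 50 μL HEPES/NaCl/KCl/MgCl2/CaCl2 buffer with 5% acetonitrile at pH 6.9–7.0, mutagenized RNA pools (0.43 μM; 21-nt variable region) were reacted with 2–1250 μM of each biotinyl-aminoacyl-oxazolone for 90 minutes at room temperature. Streptavidin capture followed, with quantification by triplicate qPCR and Illumina sequencing. Catalytic enhancement is reported as median kA over the uncatalyzed rate, the low-activity peak of a bimodal Gaussian fit to the data.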

biotinyl-Phe-oxazolone = experiment: self-aminoacylation, catalytic enhancement (BFO) (fold over background); higher = more active; k-Seq, kA / k0A0; sequences stand for … in GGGAAUGGAUCCACAUCUACGAAUUC…UUCACUGCAGACUUGACGAAGCUG
Outline: as §1

biotinyl-Trp-oxazolone = experiment: self-aminoacylation, catalytic enhancement (BWO) (fold over background); higher = more active; k-Seq, kA / k0A0; sequences stand for … in GGGAAUGGAUCCACAUCUACGAAUUC…UUCACUGCAGACUUGACGAAGCUG
Outline: as §1

biotinyl-Leu-oxazolone = experiment: self-aminoacylation, catalytic enhancement (BLO) (fold over background); higher = more active; k-Seq, kA / k0A0; sequences stand for … in GGGAAUGGAUCCACAUCUACGAAUUC…UUCACUGCAGACUUGACGAAGCUG
Outline: as §1

biotinyl-Met-oxazolone = experiment: self-aminoacylation, catalytic enhancement (BMO) (fold over background); higher = more active; k-Seq, kA / k0A0; sequences stand for … in GGGAAUGGAUCCACAUCUACGAAUUC…UUCACUGCAGACUUGACGAAGCUG
Outline: as §1

biotinyl-Val-oxazolone = experiment: self-aminoacylation, catalytic enhancement (BVO) (fold over background); higher = more active; k-Seq, kA / k0A0; sequences stand for … in GGGAAUGGAUCCACAUCUACGAAUUC…UUCACUGCAGACUUGACGAAGCUG
Outline: as §1

Row | Sequence | self-aminoacylation (biotinyl-Ile-oxazolone) | self-aminoacylation (biotinyl-Phe-oxazolone) | self-aminoacylation (biotinyl-Trp-oxazolone) | self-aminoacylation (biotinyl-Leu-oxazolone) | self-aminoacylation (biotinyl-Met-oxazolone) | self-aminoacylation (biotinyl-Val-oxazolone)
1 | AAGUUUGCUAAUAGCCGUAAG [Fam3.1 aminoacylation ribozyme variant] | 1.3 | 18.2 | 7.16 | 0.898 | 1.39 | 1.36
2 | AAGUUUGCUAAUAGGCUCAAG [Fam3.1 aminoacylation ribozyme variant] | 0.664 | 0.973 | 0.535 | 0.715 | 0.493 | 0.774
3 | AAGUUUGCUAAUAGUCACAAG [Fam3.1 aminoacylation ribozyme variant] | 1.47 | 12.3 | 4.08 | 1.21 | 1.45 | 1.35
4 | AAGUUUGCUAAUAGUCACACG [Fam3.1 aminoacylation ribozyme variant] | 1.04 | 1.63 | 1.72 | 0.991 | 0.886 | 0.886
5 | AAGUUUGCUAAUAGUCGACAG [Fam3.1 aminoacylation ribozyme variant] | 0.872 | 1.23 | 0.91 | 0.675 | 0.579 | 0.693
6 | AAGUUUGCUAAUAGUCGUAUG [Fam3.1 aminoacylation ribozyme variant] | 0.955 | 1.38 | 1.09 | 0.911 | 0.841 | 0.957
7 | AAGUUUGCUAAUAGUCUCAAC [Fam3.1 aminoacylation ribozyme variant] | 0.579 | 0.907 | 0.691 | 0.502 | 0.445 | 0.762
8 | AAGUUUGCUAAUAUACGCAAG [Fam3.1 aminoacylation ribozyme variant] | 0.63 | 0.748 | 0.591 | 0.488 | 0.652 | 0.629
9 | AAGUUUGCUAAUAUUUGCAAG [Fam3.1 aminoacylation ribozyme variant] | 1.22 | 1.09 | 1.68 | 0.981 | 1.14 | 1.07
10 | AAGUUUGCUAAUCGUAGCAAG [Fam3.1 aminoacylation ribozyme variant] | 0.739 | 1.02 | 0.676 | 0.728 | 0.521 | 0.809
11 | AAGUUUGCUAAUGGUCGGAAG [Fam3.1 aminoacylation ribozyme variant] | 0.861 | 1.55 | 0.587 | 0.849 | 0.811 | 0.91
12 | AAGUUUGCUAAUGGUUGCAAG [Fam3.1 aminoacylation ribozyme variant] | 0.761 | 1.19 | 0.963 | 0.715 | 0.664 | 0.723
13 | AAGUUUGCUAAUGUUCGCAAG [Fam3.1 aminoacylation ribozyme variant] | 0.928 | 1.09 | 1.03 | 0.861 | 0.803 | 0.993
14 | AAGUUUGCUAAUUCUCGCAAG [Fam3.1 aminoacylation ribozyme variant] | 1.26 | 0.747 | 2.64 | 1.08 | 1.06 | 0.999
15 | AAGUUUGCUACUAGUAGCAAG [Fam3.1 aminoacylation ribozyme variant] | 0.917 | 0.93 | 1.18 | 0.992 | 0.972 | 0.962
16 | AAGUUUGCUACUAGUGGCAAG [Fam3.1 aminoacylation ribozyme variant] | 0.62 | 1.2 | 0.597 | 0.636 | 0.855 | 0.599
17 | AAGUUUGCUAGUAUUCGCAAG [Fam3.1 aminoacylation ribozyme variant] | 1.13 | 0.726 | 1.39 | 0.753 | 1.02 | 0.955
18 | AAGUUUGCUAGUCGUCGCAAG [Fam3.1 aminoacylation ribozyme variant] | 0.805 | 0.983 | 1.17 | 1.01 | 0.942 | 0.942
19 | AAGUUUGCUCAUAGUCGCAUG [Fam3.1 aminoacylation ribozyme variant] | 1.05 | 0.909 | 0.856 | 0.903 | 0.893 | 1.04
20 | AAGUUUGCUCCUAGUCGCAAG [Fam3.1 aminoacylation ribozyme variant] | 1.03 | 0.939 | 1.15 | 0.802 | 0.984 | 0.851
21 | AAGUUUGCUGAAAGUCGCAAG [Fam3.1 aminoacylation ribozyme variant] | 1.02 | 1.74 | 1.2 | 1.22 | 1.01 | 1.22
22 | AAGUUUGCUGAUAGUCGCAUG [Fam3.1 aminoacylation ribozyme variant] | 1.16 | 1.41 | 1.51 | 1.21 | 1.21 | 1.03
23 | AAGUUUGCUGAUAGUUGCAAG [Fam3.1 aminoacylation ribozyme variant] | 1.02 | 1.5 | 1.64 | 1 | 1.1 | 0.894
24 | AAGUUUGCUUAAAGUCGCAAG [Fam3.1 aminoacylation ribozyme variant] | 0.972 | 1.07 | 1.1 | 0.896 | 0.754 | 0.897
25 | AAGUUUGCUUACAGUCGCAAG [Fam3.1 aminoacylation ribozyme variant] | 0.869 | 1.02 | 0.88 | 0.544 | 0.668 | 0.87
26 | AAGUUUGGUAAUAAUCGCAAG [Fam3.1 aminoacylation ribozyme variant] | 1.08 | 1.27 | 1.03 | 0.859 | 0.918 | 1.03

Row | Sequence | self-aminoacylation (biotinyl-Ile-oxazolone) | self-aminoacylation (biotinyl-Phe-oxazolone) | self-aminoacylation (biotinyl-Trp-oxazolone) | self-aminoacylation (biotinyl-Leu-oxazolone) | self-aminoacylation (biotinyl-Met-oxazolone) | self-aminoacylation (biotinyl-Val-oxazolone)
27 | AAGUUUGGUAAUAGUCUCAAG [Fam3.1 aminoacylation ribozyme variant] | 1.22 | 1.5 | 1.65 | 0.944 | 1.16 | 1.07
28 | AAGUUUGGUAAUAGUGGCAAG [Fam3.1 aminoacylation ribozyme variant] | 0.573 | 0.541 | 0.669 | 0.452 | 0.47 | 0.641
29 | AAGUUUGUUAAGAGUCGCAAG [Fam3.1 aminoacylation ribozyme variant] | 1.07 | 1.27 | 1.12 | 0.825 | 1.03 | 0.974
30 | AAGUUUGUUAAUAGUCGCAAC [Fam3.1 aminoacylation ribozyme variant] | 1.12 | 1.39 | 1.29 | 1.15 | 0.805 | 1.02
31 | AAGUUUGUUAAUAGUCGGAAG [Fam3.1 aminoacylation ribozyme variant] | 0.867 | 0.78 | 0.67 | 0.731 | 0.837 | 0.837
32 | AAGUUUUCUAAUAGACGCAAG [Fam3.1 aminoacylation ribozyme variant] | 1.01 | 1.8 | 0.898 | 0.736 | 0.817 | 0.879
33 | AAUCACCUAGGUAAUCGGGUG [Fam2.2 aminoacylation ribozyme variant] | 2.64 | 14.1 | 4.18 | 3.17 | 2.67 | 2.08
34 | AAUCACCUAGGUGAUCGGGUG [Fam2.2 aminoacylation ribozyme variant] | 4.6 | 27.7 | 5.05 | 4.84 | 5.43 | 4.03
35 | AAUCUUGCUAAUAGUCGCAAG [Fam3.1 aminoacylation ribozyme variant] | 1.57 | 2 | 1.75 | 1.8 | 1.16 | 1.45
36 | AAUUUUGCUAAUAGUCACAAG [Fam3.1 aminoacylation ribozyme variant] | 1.6 | 3.77 | 1.94 | 1.31 | 1.48 | 1.56
37 | ACACACUUCACGCAAUCGGUC [Fam1B.1 aminoacylation ribozyme variant] | 1.48 | 1.54 | 1.83 | 1.52 | 1.54 | 1.48
38 | ACACACUUCAUGCAAUCGGUC [Fam1B.1 aminoacylation ribozyme variant] | 1.26 | 1.44 | 1.31 | 1.09 | 0.96 | 1.21
39 | ACGCACCUAGGUCAUCGGGUG [Fam2.2 aminoacylation ribozyme variant] | 3.42 | 29 | 4.93 | 3.1 | 4.23 | 3.55
40 | ACGUUUGCUAAUAGCCGCAAG [Fam3.1 aminoacylation ribozyme variant] | 1.71 | 1.8 | 1.28 | 1.41 | 1.72 | 1.52
41 | ACGUUUGCUAAUCGUCGCAAG [Fam3.1 aminoacylation ribozyme variant] | 1.46 | 1.61 | 1.51 | 1.43 | 1.24 | 1.12
42 | ACUACCCUGGUCAUCGAGAGA [Fam2.1 aminoacylation ribozyme variant] | 1.46 | 1.33 | 0.81 | 1.6 | 2.02 | 1.23
43 | ACUCACCUACGUCAUCGGGUG [Fam2.2 aminoacylation ribozyme variant] | 3.98 | 57.3 | 6.64 | 7.79 | 6.25 | 4.69
44 | ACUCACCUAGGUCCUCGGGUG [Fam2.2 aminoacylation ribozyme variant] | 5.2 | 37.1 | 8.03 | 5.78 | 5.36 | 4.46
45 | AGCCACCUAGGUCAUCGGGUG [Fam2.2 aminoacylation ribozyme variant] | 6.24 | 81.6 | 10.3 | 8.17 | 7.16 | 6.3
46 | AGGUUUGCUAAUAUUCGCAAG [Fam3.1 aminoacylation ribozyme variant] | 1.25 | 1.34 | 1.53 | 0.955 | 0.994 | 1
47 | AGGUUUGCUGAUAGUCGCAAG [Fam3.1 aminoacylation ribozyme variant] | 1.49 | 2.52 | 1.83 | 1.83 | 1.53 | 1.2
48 | AUACUUCAAACAAUCGGUCCG [Fam1A.1 aminoacylation ribozyme variant] | 0.641 | 1.31 | 1.27 | 0.699 | 0.729 | 0.586
49 | AUACUUCGAACAAUCGGUCUG [Fam1A.1 aminoacylation ribozyme variant] | 1.29 | 1.74 | 1.4 | 1.16 | 1.34 | 1.17
50 | AUCACCCUGGUCAUCGGGUGA [Fam2.1 aminoacylation ribozyme variant] | 5.17 | 33.4 | 14.1 | 9.48 | 9.05 | 5.27
51 | AUCCACCUAGGUCAUGGGGUG [Fam2.2 aminoacylation ribozyme variant] | 3.54 | 56.5 | 5.9 | 6.65 | 5.64 | 3.77
